Data on three sequences can be found in publication PMC9398197.

The target of data set [1] is T1, MdHHO3-GST (Malus domestica) (UniProt A0A498I6H4).
T1 sequence (looked up, limits assumed): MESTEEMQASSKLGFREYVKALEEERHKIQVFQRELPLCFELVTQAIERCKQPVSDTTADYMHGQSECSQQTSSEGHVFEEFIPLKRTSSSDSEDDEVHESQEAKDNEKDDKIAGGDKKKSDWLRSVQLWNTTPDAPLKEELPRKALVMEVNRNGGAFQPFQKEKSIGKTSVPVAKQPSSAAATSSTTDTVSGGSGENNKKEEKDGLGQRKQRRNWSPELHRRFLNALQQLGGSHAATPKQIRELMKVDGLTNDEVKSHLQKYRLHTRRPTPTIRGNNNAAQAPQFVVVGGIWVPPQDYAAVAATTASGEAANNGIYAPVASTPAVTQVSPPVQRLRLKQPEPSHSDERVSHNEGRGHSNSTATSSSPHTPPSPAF
The data set can be described thus: competition with a labelled probe. To be noted: 50x, 100x, 200x versus labeled P2; EMSA in binding buffer (composition not given), room temperature, dark, 30 min; recombinant protein; protein details: GST (pGEX-4T-1).

Data set [2] deals with T1, MdHHO3-GST (Malus domestica). The data set can be described thus: EMSA. To be noted: EMSA in binding buffer (composition not given), room temperature, dark, 30 min; recombinant protein; protein details: GST (pGEX-4T-1); label: biotin.

The exact form of at least one protein or probe is not confirmed. Where a protein sequence is shown, tags need not be part of it.

Turning to “AACTCTTAACGAATCAATGGATGGA (double strand) [MdNRT2.1 promoter P2 unlabeled competitor]”, the binding result in data set [1] was “binds”.

With “AACTCTTAACGAATCAATGGATGGA (double strand) [MdNRT2.1 promoter P2]”, the binding result in data set [2] is given as “binds”.

Turning to “ATTTCATTAAGATTCTTAGGGAGCG (double strand) [MdHHO3 promoter P1]”, the binding result in data set [2] is reported as “binds”.
